Literature values, collected in patent EP2361081B1, “MULTI PORTION INTRA-ORAL DOSAGE FORM AND USE THEREOF” (McNeil AB, priority 2008, dated 2010).

Conditions: pKa value lying in interval 8 - 9,6; taken from Handbook of Chemistry and Physics, 85th edition

NCCC[C@H](N)C(=O)O [Ornithine]
pKa value (in interval 8 - 9,6): 8,78
